Results published in the supplement of paper PMC10060354, “Discovery of a small molecule ligand of FRS2 that inhibits invasion and tumor growth” (Cellular Oncology, 2022).
Single values are uncertain, as repeats are few or missing.

Amino acid sequences for entries named in this document (tags omitted). A change or cut given only in a name is not applied to a line headed by its entry.
UniProt Q96HA7: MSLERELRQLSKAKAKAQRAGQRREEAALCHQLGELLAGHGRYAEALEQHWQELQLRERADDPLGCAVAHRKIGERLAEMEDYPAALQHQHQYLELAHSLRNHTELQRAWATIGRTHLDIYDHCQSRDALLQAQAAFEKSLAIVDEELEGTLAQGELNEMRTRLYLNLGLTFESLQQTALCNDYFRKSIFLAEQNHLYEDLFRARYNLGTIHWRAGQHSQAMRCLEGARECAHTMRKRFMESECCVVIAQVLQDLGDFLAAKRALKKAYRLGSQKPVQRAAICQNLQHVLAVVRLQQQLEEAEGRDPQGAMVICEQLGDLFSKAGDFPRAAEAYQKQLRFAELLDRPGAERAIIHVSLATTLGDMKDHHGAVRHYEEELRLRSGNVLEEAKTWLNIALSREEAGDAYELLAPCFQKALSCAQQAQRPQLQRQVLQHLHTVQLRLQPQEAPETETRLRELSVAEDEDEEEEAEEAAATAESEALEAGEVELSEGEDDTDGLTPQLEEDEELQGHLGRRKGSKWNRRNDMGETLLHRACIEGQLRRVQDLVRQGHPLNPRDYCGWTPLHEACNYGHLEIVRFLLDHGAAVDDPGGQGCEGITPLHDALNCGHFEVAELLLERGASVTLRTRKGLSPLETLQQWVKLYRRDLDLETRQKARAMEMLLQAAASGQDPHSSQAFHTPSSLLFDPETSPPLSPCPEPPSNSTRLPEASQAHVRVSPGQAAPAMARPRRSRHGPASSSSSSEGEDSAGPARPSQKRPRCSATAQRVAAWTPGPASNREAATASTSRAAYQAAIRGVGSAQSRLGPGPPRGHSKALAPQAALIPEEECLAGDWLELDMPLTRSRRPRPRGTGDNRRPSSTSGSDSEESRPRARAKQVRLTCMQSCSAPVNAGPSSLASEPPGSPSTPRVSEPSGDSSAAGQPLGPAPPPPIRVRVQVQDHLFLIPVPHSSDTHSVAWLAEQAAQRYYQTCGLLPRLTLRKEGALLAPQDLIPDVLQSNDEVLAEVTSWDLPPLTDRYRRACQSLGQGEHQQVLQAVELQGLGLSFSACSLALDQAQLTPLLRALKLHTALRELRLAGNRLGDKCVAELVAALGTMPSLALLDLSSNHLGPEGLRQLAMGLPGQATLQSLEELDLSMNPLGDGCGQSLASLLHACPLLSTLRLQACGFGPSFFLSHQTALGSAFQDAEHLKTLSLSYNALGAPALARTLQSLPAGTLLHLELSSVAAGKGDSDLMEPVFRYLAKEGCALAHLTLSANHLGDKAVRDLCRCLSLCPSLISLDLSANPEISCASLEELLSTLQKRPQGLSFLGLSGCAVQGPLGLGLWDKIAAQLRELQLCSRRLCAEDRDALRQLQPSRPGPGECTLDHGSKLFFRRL
UniProt O60739, whole entry: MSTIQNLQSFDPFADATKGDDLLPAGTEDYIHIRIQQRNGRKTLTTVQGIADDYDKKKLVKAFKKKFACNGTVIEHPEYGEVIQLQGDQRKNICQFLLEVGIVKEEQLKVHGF
UniProt Q9Y617: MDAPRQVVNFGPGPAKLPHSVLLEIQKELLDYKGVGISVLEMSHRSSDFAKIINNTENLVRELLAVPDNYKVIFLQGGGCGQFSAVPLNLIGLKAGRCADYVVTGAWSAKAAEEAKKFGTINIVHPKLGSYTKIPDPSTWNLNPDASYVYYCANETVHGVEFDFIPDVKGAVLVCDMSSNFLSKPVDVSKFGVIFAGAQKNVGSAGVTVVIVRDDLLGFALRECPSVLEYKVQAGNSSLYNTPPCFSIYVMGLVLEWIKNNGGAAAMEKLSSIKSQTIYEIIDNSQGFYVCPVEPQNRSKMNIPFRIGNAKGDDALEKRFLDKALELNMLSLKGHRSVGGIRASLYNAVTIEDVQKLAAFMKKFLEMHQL
UniProt O43617, whole entry: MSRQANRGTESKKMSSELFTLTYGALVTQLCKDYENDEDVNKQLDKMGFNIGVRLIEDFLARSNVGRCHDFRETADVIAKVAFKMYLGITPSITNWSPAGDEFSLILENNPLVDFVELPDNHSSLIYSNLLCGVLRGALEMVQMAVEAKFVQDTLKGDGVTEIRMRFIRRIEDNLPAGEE
UniProt Q14344, whole entry: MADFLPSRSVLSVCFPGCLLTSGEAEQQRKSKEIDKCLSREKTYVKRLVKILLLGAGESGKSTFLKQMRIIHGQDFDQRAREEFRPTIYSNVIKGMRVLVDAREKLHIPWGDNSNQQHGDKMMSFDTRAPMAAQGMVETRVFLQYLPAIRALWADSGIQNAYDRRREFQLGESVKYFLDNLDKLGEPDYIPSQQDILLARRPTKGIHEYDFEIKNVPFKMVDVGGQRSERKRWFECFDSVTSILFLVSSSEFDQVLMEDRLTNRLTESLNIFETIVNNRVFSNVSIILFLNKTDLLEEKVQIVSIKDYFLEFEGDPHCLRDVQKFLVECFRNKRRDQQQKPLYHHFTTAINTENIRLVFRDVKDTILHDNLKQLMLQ
UniProt Q16543: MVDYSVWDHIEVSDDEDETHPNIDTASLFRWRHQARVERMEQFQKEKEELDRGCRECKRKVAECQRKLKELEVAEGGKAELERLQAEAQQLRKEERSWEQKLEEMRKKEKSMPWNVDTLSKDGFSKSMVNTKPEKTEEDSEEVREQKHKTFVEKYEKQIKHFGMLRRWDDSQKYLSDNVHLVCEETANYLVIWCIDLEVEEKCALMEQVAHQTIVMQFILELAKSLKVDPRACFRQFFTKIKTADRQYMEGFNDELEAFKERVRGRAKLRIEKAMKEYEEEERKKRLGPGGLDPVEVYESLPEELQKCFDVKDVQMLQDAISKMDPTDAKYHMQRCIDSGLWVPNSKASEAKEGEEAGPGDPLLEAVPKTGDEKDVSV
UniProt O00400: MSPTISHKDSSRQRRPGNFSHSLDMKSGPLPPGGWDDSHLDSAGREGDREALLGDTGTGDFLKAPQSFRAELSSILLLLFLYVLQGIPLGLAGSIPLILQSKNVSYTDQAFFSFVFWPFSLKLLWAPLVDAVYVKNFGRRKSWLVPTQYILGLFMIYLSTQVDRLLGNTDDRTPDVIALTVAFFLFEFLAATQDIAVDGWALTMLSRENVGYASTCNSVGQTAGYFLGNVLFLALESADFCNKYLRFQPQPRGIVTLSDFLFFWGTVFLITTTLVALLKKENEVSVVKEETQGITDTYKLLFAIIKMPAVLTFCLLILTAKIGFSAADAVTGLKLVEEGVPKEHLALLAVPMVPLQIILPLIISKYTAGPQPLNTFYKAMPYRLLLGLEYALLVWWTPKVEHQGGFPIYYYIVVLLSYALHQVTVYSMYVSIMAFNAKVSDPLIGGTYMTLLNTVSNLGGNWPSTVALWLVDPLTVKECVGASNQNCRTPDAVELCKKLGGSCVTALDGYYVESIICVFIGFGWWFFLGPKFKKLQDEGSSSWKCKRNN
UniProt P47974: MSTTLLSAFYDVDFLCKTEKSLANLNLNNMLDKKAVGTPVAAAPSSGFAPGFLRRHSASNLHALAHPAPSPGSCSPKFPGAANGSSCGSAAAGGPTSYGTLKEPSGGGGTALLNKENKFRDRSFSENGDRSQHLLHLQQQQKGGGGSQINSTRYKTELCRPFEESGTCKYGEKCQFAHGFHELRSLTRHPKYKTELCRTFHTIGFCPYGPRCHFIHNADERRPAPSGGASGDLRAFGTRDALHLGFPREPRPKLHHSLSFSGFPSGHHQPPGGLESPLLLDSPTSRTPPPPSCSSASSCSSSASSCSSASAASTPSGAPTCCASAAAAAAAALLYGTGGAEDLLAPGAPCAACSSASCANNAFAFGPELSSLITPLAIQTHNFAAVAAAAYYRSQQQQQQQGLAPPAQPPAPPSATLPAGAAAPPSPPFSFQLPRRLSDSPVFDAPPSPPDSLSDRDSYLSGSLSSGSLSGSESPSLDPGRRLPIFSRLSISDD
UniProt Q10570: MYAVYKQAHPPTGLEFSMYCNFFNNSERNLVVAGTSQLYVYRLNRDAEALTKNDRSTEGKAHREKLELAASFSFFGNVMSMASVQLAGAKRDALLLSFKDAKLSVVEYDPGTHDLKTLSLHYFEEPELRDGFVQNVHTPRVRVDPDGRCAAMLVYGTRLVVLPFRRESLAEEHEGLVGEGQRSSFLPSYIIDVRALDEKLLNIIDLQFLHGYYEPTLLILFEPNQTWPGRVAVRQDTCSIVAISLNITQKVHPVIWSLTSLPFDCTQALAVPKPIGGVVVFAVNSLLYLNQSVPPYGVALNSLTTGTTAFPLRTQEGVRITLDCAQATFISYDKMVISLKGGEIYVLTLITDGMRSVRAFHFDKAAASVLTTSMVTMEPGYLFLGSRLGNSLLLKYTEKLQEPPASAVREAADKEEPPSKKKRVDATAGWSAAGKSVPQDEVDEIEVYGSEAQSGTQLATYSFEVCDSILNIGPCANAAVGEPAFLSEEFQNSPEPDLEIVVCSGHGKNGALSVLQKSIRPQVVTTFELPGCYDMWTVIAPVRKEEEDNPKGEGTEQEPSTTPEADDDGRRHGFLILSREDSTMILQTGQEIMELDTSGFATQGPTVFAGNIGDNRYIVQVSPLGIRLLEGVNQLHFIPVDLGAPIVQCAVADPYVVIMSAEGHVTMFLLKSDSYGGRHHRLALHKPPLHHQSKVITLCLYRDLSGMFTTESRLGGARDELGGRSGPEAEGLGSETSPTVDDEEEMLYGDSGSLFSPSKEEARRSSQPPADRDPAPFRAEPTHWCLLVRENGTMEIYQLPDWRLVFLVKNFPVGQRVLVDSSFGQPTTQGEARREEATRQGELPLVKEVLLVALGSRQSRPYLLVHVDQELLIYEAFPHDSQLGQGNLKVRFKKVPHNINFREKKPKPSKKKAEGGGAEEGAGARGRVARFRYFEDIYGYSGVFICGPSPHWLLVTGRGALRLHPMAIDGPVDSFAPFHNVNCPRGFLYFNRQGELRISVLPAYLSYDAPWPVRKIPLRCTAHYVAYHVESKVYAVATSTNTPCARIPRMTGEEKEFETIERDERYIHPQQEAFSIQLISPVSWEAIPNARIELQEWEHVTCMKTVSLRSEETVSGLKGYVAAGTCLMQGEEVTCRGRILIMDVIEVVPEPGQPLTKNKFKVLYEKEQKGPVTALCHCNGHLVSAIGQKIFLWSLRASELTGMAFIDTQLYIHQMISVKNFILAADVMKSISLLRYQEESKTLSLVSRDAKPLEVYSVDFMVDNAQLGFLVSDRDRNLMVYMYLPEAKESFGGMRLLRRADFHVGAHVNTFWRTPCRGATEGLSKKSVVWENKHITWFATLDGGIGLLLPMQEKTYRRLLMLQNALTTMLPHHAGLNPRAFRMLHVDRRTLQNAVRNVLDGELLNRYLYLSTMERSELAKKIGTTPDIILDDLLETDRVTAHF
UniProt Q96A57: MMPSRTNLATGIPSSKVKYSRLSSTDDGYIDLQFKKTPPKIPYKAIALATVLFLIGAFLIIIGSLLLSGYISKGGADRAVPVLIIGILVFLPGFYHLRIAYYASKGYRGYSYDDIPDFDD
UniProt Q9H0S4: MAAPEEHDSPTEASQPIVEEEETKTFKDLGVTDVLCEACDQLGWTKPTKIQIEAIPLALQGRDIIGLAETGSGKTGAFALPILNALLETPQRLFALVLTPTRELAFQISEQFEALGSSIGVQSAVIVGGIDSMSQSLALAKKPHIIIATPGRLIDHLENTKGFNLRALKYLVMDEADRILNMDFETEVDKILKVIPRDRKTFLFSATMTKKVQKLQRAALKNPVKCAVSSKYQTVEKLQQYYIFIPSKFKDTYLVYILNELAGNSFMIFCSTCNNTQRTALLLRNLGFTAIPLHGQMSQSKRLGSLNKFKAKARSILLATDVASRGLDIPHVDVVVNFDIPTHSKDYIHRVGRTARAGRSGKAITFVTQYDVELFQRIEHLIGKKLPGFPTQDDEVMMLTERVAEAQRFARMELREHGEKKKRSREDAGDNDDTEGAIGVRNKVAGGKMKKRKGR
UniProt P50502: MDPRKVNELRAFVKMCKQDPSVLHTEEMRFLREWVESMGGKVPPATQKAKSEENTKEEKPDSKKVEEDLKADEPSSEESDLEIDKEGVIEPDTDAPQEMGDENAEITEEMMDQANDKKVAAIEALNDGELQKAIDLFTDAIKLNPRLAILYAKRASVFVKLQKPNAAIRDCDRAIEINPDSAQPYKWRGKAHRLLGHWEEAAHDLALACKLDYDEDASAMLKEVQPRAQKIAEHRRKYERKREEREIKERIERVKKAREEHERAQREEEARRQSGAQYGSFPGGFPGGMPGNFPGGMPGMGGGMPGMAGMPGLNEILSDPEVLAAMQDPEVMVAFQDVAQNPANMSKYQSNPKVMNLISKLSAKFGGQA
UniProt Q8WUW1: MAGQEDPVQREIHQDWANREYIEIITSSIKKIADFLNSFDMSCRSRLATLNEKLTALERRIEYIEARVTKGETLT
UniProt Q9NQ48: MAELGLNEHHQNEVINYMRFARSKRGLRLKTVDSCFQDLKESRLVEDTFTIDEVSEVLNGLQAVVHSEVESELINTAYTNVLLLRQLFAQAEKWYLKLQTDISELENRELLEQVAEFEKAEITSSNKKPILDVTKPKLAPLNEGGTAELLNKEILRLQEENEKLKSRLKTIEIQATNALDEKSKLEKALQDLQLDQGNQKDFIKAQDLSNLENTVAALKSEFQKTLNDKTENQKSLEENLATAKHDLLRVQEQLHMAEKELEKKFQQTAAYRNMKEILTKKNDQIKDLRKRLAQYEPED

Compound: [O-][N+](C(C1=C(C(O)=C2)NC(C(C=C3)=CC=C3Cl)C4C1C=CC4)=C2Cl)=O
Assay: melting temperature shift (compound 7 minus DMSO); higher = compound stabilises the protein
Conditions: 10 µM
Procedure: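 Thermal proteome profiling (TMT mass spectrometry) in intact DAOY medulloblastoma cells or DAOY lysates treated with 10 µM compound 7 or DMSO, heated at 10 temperatures from 40.5 to 73.8 °C for 3 min. Melting curves were fitted with the Bioconductor TPP package, and the melting point difference between compound and vehicle is reported per protein (single curve per condition).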

[1] = system: DAOY cell lysate, treatment time: 20 min, 4 °C
[2] = system: intact DAOY cells, treatment time: 90 min, 37 °C

Target | melting temperature shift [1] | melting temperature shift [2]
TXNRD1 (UniProt Q16881) | -1.03 °C | 0.247 °C
RAD23B (UniProt P54727) | -2.88 °C | –
UBE2J2 (UniProt Q8N2K1) | 2.21 °C | -0.347 °C
CTBP1 (UniProt Q13363) | -0.843 °C | 0.4 °C
TONSL (UniProt Q96HA7) | 0.859 °C | –
UniProt Q9HC77 | -0.708 °C | 0.0891 °C
TENM3 (UniProt Q9P273) | 1.13 °C | 1.1 °C
UniProt Q9Y383 | -0.643 °C | -0.321 °C
AKT2 (UniProt P31751) | -0.681 °C | -0.354 °C
CNOT10 (UniProt Q9H9A5) | -0.569 °C | 0.0548 °C
UniProt P07199 | 1.67 °C | –
PPP4R2 (UniProt Q9NY27) | -0.992 °C | -0.105 °C
IK (UniProt Q13123) | -0.0111 °C | -0.568 °C
MCM2 (UniProt P49736) | -0.397 °C | -1.16 °C
TMEM165 (UniProt Q9HC07) | 2.07 °C | 2.46 °C
UniProt O60739 | – | 0.107 °C
FIS1 (UniProt Q9Y3D6) | 0.644 °C | –
STXBP5 (UniProt Q5T5C0) | – | 1.32 °C
UniProt Q9H9S4 | – | -0.457 °C
PARG (UniProt Q86W56) | -1.76 °C | 1.98 °C
CCPG1 (UniProt Q9ULG6) | – | -0.324 °C
MTOR (UniProt P42345) | -0.71 °C | 3.01 °C
CCDC115 (UniProt Q96NT0) | -0.126 °C | -0.746 °C

Target | melting temperature shift [1] | melting temperature shift [2]
RABIF (UniProt P47224) | -0.532 °C | -1.48 °C
UniProt Q5DJT8 | – | 1.32 °C
UniProt Q8IVE0 | – | -1.79 °C
PBK (UniProt Q96KB5) | -0.702 °C | -0.0515 °C
MARC1 (UniProt Q5VT66) | -3.22 °C | -4.7 °C
PHGDH (UniProt O43175) | -1.11 °C | 0.888 °C
FAM188A (UniProt Q9H8M7) | 0.376 °C | -0.685 °C
KIF21A (UniProt Q7Z4S6) | -1.08 °C | 1.38 °C
DUSP12 (UniProt Q9UNI6) | 0.334 °C | 0.671 °C
AP2A1 (UniProt O95782) | -0.474 °C | -0.386 °C
PSAT1 (UniProt Q9Y617) | -0.855 °C | 0.416 °C
UniProt O95478 | 1.42 °C | –
TIMELESS (UniProt Q9UNS1) | -0.607 °C | –
CERCAM (UniProt Q5T4B2) | – | 3.76 °C
COMT (UniProt P21964) | 0.587 °C | 0.959 °C
RBM42 (UniProt Q9BTD8) | 0.418 °C | -1.25 °C
TNIP1 (UniProt Q15025) | -0.578 °C | -0.465 °C
PWP2 (UniProt Q15269) | – | 0.431 °C
UniProt Q9BZM5 | 1.67 °C | –
RHOT1 (UniProt Q8IXI2) | 0.548 °C | -1.57 °C
SCAMP4 (UniProt Q969E2) | -0.745 °C | –
CST3 (UniProt P01034) | 3.46 °C | –
PTPRJ (UniProt Q12913) | 1.55 °C | -0.399 °C

Target | melting temperature shift [1] | melting temperature shift [2]
TNIK (UniProt Q9UKE5) | 2.84 °C | -0.124 °C
RC3H1 (UniProt Q5TC82) | -2.45 °C | –
GOLGA2 (UniProt Q08379) | 1.48 °C | 0.287 °C
GBAS (UniProt O75323) | 1.07 °C | 0.337 °C
PIK3R4 (UniProt Q99570) | -0.692 °C | 0.072 °C
RPL34 (UniProt P49207) | 1.29 °C | -0.5 °C
TRAPPC3 (UniProt O43617) | -2.07 °C | -0.709 °C
PRIM2 (UniProt P49643) | -0.608 °C | -0.736 °C
STX18 (UniProt Q9P2W9) | 1.08 °C | -1.1 °C
YTHDC2 (UniProt Q9H6S0) | -0.773 °C | –
UniProt Q9Y4K1 | 0.69 °C | –
GNA13 (UniProt Q14344) | 0.558 °C | –
RALGPS2 (UniProt Q86X27) | 0.0418 °C | –
DTD1 (UniProt Q8TEA8) | 0.748 °C | -1.01 °C
TACC2 (UniProt O95359) | 2.6 °C | –
UniProt Q32P51 | – | -0.205 °C
MECP2 (UniProt P51608) | 0.809 °C | -0.744 °C
CDC37 (UniProt Q16543) | -1.6 °C | 0.216 °C
SLC33A1 (UniProt O00400) | 0.657 °C | -2.14 °C
AAAS (UniProt Q9NRG9) | 2 °C | 0.466 °C
SLC12A6 (UniProt Q9UHW9) | – | -0.404 °C
ZFP36L2 (UniProt P47974) | -0.786 °C | 2.62 °C
CPSF1 (UniProt Q10570) | -0.372 °C | 0.398 °C

Exported comma-delimited: entries from further up.
Target,melting temperature shift [1],melting temperature shift [2]
PHGDH (UniProt O43175),-1.11 °C,0.888 °C
FAM188A (UniProt Q9H8M7),0.376 °C,-0.685 °C

More records.

Target | melting temperature shift [1] | melting temperature shift [2]
GOLPH3L (UniProt Q9H4A5) | – | 1.3 °C
UBXN7 (UniProt O94888) | -0.524 °C | 0.378 °C
ITPR2 (UniProt Q14571) | 3.27 °C | -1.12 °C
TUFM (UniProt P49411) | -0.466 °C | -1.68 °C
PYGB (UniProt P11216) | -0.273 °C | -0.0504 °C
CHAF1B (UniProt Q13112) | 0.854 °C | 0.244 °C
LIPA (UniProt P38571) | 0.499 °C | 0.871 °C
UniProt Q96A57 | 3.79 °C | –
H2AFY (UniProt O75367) | – | -0.259 °C
ATP5A1 (UniProt P25705) | 1.63 °C | -0.673 °C
DDX47 (UniProt Q9H0S4) | 0.21 °C | 0.0518 °C
PCK2 (UniProt Q16822) | -1.61 °C | -2.84 °C
C14ORF166 (UniProt Q9Y224) | -0.681 °C | -0.418 °C
ARL8A (UniProt Q96BM9) | -2.6 °C | -0.7 °C
RAP1GDS1 (UniProt P52306) | -0.197 °C | 0.0631 °C
UniProt Q5I7T1 | – | -0.655 °C
ST13 (UniProt P50502) | -0.573 °C | -0.0129 °C
UniProt Q8WUW1 | -0.878 °C | 2.09 °C
UniProt Q6GMV3 | 2.01 °C | 0.924 °C
LZTFL1 (UniProt Q9NQ48) | -0.00968 °C | 1.6 °C
TMEM214 (UniProt Q6NUQ4) | 0.873 °C | -0.846 °C

4 entries from above, reformatted:
Target	melting temperature shift [1]	melting temperature shift [2]
CHAF1B (UniProt Q13112)	0.854 °C	0.244 °C
C14ORF166 (UniProt Q9Y224)	-0.681 °C	-0.418 °C
UniProt Q5I7T1	–	-0.655 °C
ST13 (UniProt P50502)	-0.573 °C	-0.0129 °C
